According to PMC3961655, “Methyllysine Reader Plant Homeodomain (PHD) Finger Protein 20-like 1 (PHF20L1) Antagonizes DNA (Cytosine-5) Methyltransferase 1 (DNMT1) Proteasomal Degradation*” (The Journal of Biological Chemistry, 2014):
These are yes or no findings as the source states them, for the method shown. For some of these results: In cells and extracts the contact can be indirect. Some results given as binding are weak or reduced against the parent protein; the word gives no strength. For some of these results: Where a sequence is shown, tags or fusion partners need not be part of it. Values belong to the binder of their own block, whether it stands above or below them.

Sequences of proteins named here, by UniProt entry; tags and fusion partners are left off.
UniProt P26358: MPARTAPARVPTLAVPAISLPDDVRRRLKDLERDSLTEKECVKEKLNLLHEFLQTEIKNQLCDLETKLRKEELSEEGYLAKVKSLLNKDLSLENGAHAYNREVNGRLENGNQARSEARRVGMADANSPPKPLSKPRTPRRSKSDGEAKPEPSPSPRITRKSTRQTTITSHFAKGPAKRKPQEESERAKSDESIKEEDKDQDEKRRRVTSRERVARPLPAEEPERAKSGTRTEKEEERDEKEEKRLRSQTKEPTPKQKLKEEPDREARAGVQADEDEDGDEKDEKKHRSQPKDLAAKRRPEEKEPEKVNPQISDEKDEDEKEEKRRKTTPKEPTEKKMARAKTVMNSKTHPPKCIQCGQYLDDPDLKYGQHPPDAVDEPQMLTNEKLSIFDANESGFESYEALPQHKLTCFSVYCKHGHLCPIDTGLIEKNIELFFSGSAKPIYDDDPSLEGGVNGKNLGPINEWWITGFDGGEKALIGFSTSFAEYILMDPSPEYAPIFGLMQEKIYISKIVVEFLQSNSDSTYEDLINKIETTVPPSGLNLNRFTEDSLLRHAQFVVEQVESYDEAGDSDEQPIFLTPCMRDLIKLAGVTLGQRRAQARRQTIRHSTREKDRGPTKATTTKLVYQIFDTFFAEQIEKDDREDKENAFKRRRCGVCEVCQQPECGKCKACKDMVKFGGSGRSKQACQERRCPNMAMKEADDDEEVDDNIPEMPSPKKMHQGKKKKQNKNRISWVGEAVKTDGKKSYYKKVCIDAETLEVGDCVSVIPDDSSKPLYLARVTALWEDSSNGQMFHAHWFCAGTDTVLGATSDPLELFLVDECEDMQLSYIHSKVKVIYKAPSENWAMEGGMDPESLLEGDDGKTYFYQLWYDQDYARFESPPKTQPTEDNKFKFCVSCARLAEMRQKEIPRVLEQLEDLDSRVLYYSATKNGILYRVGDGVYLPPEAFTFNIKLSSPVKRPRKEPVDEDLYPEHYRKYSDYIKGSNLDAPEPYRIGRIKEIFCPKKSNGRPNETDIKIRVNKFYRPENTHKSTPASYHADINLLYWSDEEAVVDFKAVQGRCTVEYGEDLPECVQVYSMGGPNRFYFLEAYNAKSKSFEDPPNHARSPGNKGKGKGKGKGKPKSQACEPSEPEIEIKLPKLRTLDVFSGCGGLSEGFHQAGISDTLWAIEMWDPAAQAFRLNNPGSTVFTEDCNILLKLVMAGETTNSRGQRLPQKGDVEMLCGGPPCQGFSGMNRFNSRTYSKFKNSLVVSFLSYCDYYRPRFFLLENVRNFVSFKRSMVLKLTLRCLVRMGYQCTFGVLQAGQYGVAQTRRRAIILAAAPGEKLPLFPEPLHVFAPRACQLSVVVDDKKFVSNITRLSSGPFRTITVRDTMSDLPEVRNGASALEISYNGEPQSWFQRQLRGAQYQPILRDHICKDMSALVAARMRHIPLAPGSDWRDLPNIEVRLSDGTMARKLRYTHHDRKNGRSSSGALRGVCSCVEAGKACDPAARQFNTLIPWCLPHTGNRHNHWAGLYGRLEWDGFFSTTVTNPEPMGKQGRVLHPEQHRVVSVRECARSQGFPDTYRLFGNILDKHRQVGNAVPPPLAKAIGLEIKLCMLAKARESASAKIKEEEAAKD

How the values were obtained:
[1] = biological target: endogenous DNMT1 (human (endogenous in HeLa, HEK293, HCT116)) (UniProt P26358); test: co-IP; HeLa nuclear extracts (400 ug to 1 mg) precipitated with 5 ug anti-DNMT1 or anti-PHF20L1, rabbit IgG as control; also after 80 uM UNC1215 or ethanol for 3 days (lower levels of PHF20L1 with UNC1215)
[2] = biological target: endogenous DNMT1 (human (endogenous in HeLa, HEK293, HCT116)) (UniProt P26358); test: co-IP; co-immunoprecipitations of endogenous DNMT1 and PHF20L1a in HEK293 and HCT116 cells
[3] = biological target: endogenous DNMT1K142me1 (DNMT1 monomethylated at lysine 142) (human (endogenous in Jurkat)) (UniProt P26358); test: SEC; gel filtration of Jurkat cell nuclear extract; fractions blotted for DNMT1, DNMT1K142me1 and PHF20L1a
[4] = biological target: T1, biotin-tagged DNMT1K142me1 peptide (amino acids 132-150 of DNMT1 with monomethylated Lys-142); test: pull-down; 10 uM biotin peptide on agarose-streptavidin beads; 500 ng MBP-PHF20L1a with 0-200 uM UNC1215 for 1 h at 4 C; 10% glycerol, 0.1 mM DTT, 1 mM EDTA, 20 mM HEPES, 100 mM KCl; blot with anti-MBP-HRP; both purified
T1 sequence (peptide, monomethyl-lysine K(me1) at Lys-142; biotin, printed before the first residue): LSKPRTPRRSKSDGEAKPE

binding [1]: binds | binding [2]: binds | binding [3]: binds
B1: endogenous PHF20L1a (natural protein, UniProt A8MW92 1-1017, looked up)
chain: MSKKPPNRPGITFEIGARLEALDYLQKWYPSRIEKIDYEEGKMLVHFERWSHRYDEWIYWDSNRLRPLERPALRKEGLKDEEDFFDFKAGEEVLARWTDCRYYPAKIEAINKEGTFTVQFYDGVIRCLKRMHIKAMPEDAKGQVKSQHPLSWCCPIDPAGSCNQSMGSEDWIALVKAAAAAAAKNKTGSKPRTSANSNKDKDKDERKWFKVPSKKEETSTCIATPDVEKKEDLPTSSETFGLHVENVPKMVFPQPESTLSNKRKNNQGNSFQAKRARLNKITGLLASKAVGVDGAEKKEDYNETAPMLEQAISPKPQSQKKNEADISSSANTQKPALLSSTLSSGKARSKKCKHESGDSSGCIKPPKSPLSPELIQVEDLTLVSQLSSSVINKTSPPQPVNPPRPFKHSERRRRSQRLATLPMPDDSVEKVSSPSPATDGKVFSISSQNQQESSVPEVPDVAHLPLEKLGPCLPLDLSRGSEVTAPVASDSSYRNECPRAEKEDTQMLPNPSSKAIADGRGAPAAAGISKTEKKVKLEDKSSTAFGKRKEKDKERREKRDKDHYRPKQKKKKKKKKKSKQHDYSDYEDSSLEFLERCSSPLTRSSGSSLASRSMFTEKTTTYQYPRAILSVDLSGENLSDVDFLDDSSTESLLLSGDEYNQDFDSTNFEESQDEDDALNEIVRCICEMDEENGFMIQCEECLCWQHSVCMGLLEESIPEQYICYICRDPPGQRWSAKYRYDKEWLNNGRMCGLSFFKENYSHLNAKKIVSTHHLLADVYGVTEVLHGLQLKIGILKNKHHPDLHLWACSGKRKDQDQIIAGVEKKIAQDTVNREEKKYVQNHKEPPRLPLKMEGTYITSEHSYQKPQSFGQDCKSLADPGSSDDDDVSSLEEEQEFHMRSKNSLQYSAKEHGMPEKNPAEGNTVFVYNDKKGTEDPGDSHLQWQLNLLTHIENVQNEVTSRMDLIEKEVDVLESWLDFTGELEPPDPLARLPQLKRHIKQLLIDMGKVQQIATLCSV

binding [4]: binds
B2: MBP-PHF20L1 full-length fusion protein (isoform a) (protein, UniProt A8MW92 1-1017)
chain: B1 chain
